Some of the results follow. Most entries show no effect beyond the scatter of the controls.
Each target was assayed with Cc1nc(Nc2ncc(C(=O)Nc3c(C)cccc3Cl)s2)cc(N2CCN(CCO)CC2)n1 [dasatinib] (assay: log2 fold change of tryptic peptide abundance, ligand vs vehicle (limited proteolysis) (log2 ratio); higher = more trypsin-susceptible (destabilized)). Details: ligand concentration: 5 uM; sample: K562 cleared lysate.

Sequences of proteins named here, by UniProt entry; tags and fusion partners are left off. A change or cut given only in a name is not applied to a line headed by its entry.
UniProt O15020, whole entry: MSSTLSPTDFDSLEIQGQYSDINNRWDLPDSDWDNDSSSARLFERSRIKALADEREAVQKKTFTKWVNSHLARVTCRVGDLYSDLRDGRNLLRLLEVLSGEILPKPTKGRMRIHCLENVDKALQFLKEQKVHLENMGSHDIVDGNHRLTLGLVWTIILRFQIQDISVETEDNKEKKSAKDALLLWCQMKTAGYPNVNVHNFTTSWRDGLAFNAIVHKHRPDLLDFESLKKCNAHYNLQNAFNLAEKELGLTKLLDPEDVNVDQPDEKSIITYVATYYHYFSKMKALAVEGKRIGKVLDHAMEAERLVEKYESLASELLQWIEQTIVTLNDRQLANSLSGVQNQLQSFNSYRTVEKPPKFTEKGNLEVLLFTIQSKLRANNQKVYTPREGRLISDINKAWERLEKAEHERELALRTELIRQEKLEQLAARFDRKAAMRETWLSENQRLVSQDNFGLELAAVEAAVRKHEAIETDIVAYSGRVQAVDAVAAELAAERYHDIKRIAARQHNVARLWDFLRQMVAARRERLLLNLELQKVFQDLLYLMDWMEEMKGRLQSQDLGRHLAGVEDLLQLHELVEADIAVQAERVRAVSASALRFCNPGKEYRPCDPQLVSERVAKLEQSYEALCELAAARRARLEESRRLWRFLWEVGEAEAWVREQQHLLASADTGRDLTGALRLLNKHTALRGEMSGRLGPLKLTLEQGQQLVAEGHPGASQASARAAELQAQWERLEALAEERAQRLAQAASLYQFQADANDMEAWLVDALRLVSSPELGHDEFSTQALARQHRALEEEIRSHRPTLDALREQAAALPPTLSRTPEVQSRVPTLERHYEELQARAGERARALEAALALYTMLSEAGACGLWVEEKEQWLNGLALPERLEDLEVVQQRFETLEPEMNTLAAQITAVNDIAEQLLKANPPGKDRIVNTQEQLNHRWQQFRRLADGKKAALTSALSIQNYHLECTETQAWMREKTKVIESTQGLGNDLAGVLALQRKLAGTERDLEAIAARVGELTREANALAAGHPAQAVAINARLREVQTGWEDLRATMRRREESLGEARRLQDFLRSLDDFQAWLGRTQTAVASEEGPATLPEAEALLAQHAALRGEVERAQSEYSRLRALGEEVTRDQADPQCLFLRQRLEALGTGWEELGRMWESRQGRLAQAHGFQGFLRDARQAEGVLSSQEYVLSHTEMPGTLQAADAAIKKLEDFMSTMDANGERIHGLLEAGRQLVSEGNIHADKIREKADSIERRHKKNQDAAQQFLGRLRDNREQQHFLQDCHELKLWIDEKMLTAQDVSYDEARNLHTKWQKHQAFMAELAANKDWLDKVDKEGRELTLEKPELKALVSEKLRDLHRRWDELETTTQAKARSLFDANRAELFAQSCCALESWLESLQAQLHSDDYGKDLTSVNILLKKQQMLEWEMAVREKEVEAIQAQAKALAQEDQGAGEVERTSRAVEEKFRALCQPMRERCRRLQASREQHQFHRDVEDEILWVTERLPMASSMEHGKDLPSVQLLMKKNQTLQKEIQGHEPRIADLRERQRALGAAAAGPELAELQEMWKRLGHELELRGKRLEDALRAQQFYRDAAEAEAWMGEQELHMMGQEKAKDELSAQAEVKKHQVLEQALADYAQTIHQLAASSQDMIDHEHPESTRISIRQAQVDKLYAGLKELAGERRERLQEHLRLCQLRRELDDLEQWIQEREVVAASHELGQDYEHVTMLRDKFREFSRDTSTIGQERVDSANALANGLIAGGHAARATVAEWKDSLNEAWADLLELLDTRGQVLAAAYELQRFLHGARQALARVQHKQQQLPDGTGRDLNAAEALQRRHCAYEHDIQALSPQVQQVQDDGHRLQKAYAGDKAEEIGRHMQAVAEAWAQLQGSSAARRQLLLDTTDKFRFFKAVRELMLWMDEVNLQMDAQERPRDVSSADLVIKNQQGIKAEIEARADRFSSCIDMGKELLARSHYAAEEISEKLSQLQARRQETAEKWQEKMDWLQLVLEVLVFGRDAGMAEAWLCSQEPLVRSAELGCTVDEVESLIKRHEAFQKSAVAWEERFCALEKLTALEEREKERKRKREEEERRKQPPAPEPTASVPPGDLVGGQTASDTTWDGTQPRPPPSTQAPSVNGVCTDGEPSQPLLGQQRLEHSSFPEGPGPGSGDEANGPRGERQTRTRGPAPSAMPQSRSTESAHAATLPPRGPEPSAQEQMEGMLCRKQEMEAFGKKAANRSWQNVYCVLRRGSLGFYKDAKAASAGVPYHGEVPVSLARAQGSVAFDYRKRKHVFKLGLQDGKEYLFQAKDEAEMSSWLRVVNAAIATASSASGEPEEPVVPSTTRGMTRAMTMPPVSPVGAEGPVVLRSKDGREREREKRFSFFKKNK
UniProt O00170: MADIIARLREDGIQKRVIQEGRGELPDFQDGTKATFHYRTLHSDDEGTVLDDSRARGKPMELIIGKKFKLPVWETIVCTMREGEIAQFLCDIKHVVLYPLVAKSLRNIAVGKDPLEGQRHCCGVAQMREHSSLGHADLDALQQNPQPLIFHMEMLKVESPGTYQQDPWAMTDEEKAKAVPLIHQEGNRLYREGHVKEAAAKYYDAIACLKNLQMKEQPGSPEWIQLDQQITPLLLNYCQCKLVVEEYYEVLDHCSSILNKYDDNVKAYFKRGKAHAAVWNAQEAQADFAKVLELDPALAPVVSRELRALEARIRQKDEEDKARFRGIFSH
UniProt O15287: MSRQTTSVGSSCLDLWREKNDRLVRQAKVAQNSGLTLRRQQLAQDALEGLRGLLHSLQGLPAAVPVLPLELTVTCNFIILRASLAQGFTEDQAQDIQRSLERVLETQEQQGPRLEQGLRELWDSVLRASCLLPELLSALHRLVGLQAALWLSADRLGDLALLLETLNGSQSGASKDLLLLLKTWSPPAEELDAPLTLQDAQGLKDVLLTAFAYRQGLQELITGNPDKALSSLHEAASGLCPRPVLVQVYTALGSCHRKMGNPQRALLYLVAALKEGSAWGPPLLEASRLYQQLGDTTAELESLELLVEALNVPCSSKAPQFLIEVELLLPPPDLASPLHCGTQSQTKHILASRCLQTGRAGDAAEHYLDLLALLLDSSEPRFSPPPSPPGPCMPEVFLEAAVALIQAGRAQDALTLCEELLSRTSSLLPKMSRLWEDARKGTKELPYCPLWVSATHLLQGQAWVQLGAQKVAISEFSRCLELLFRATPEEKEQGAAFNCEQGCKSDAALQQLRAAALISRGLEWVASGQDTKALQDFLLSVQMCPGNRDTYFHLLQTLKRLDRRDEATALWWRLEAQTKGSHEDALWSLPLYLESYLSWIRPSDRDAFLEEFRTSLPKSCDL
UniProt O15391, whole entry: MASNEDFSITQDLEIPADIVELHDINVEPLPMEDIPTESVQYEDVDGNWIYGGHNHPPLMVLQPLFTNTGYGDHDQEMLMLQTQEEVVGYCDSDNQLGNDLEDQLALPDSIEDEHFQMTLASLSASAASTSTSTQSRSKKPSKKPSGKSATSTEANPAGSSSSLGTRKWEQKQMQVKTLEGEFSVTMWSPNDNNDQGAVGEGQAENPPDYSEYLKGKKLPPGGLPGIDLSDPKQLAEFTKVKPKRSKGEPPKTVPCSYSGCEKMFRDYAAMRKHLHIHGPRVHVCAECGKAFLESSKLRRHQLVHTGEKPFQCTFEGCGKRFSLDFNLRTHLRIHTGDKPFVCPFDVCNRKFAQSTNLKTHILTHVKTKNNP
UniProt B2RBV5: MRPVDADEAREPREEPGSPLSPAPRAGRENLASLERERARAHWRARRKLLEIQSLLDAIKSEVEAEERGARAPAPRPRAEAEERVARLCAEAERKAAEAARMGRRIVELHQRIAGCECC
UniProt O00566: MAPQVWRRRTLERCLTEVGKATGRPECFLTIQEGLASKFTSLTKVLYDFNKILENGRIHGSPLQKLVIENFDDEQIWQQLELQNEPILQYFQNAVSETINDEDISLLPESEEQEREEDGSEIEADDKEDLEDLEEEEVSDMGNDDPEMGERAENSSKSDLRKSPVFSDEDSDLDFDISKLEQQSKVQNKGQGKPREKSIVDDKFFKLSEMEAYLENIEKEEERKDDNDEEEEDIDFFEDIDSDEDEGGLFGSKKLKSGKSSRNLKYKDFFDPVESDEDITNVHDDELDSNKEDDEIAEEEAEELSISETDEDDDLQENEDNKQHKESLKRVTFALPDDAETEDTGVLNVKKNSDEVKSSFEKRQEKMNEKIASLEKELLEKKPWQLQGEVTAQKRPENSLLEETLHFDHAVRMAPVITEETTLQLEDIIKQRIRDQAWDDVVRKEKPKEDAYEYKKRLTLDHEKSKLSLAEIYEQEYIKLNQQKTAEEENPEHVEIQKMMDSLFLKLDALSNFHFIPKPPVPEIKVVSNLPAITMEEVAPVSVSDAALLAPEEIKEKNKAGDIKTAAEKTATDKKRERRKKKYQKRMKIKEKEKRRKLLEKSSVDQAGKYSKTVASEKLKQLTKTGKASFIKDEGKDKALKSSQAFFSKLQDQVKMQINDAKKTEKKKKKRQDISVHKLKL
UniProt O14653: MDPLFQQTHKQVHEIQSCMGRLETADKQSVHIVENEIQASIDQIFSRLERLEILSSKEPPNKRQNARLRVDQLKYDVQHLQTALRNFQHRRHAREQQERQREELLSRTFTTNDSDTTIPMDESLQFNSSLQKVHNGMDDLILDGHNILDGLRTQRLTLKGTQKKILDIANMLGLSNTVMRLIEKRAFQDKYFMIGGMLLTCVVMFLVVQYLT
UniProt O15372, whole entry: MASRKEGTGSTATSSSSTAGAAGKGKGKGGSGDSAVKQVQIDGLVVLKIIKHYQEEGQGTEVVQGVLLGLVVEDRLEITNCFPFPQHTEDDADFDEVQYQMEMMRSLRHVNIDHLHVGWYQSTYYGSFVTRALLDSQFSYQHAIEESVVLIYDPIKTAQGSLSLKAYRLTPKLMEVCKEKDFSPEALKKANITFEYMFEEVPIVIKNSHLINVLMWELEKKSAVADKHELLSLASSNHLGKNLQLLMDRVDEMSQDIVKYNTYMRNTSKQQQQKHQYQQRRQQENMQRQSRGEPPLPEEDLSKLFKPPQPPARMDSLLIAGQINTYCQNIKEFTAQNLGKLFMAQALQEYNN
UniProt O14618: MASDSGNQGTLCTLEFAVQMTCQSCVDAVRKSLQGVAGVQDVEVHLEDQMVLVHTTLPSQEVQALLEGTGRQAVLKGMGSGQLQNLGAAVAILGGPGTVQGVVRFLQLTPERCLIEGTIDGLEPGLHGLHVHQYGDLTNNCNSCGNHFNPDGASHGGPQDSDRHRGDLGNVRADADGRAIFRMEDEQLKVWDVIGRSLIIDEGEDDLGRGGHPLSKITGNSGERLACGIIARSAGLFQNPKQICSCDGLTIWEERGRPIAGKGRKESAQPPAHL
UniProt O00463: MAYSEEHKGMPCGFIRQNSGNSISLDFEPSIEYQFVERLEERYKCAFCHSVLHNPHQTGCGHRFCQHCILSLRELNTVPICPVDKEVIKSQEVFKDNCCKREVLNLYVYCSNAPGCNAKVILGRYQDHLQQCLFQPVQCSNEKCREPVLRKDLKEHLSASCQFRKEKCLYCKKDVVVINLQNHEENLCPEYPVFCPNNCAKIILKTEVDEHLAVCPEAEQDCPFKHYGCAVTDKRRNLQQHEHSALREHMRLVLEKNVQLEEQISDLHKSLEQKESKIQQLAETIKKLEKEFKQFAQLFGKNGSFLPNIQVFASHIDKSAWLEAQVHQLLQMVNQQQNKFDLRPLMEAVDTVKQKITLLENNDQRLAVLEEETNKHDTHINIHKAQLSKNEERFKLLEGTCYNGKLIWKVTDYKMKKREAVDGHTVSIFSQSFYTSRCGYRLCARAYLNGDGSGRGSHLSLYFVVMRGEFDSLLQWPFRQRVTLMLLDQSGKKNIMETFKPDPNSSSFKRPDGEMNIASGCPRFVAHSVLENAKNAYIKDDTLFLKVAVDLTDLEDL
UniProt O00541, whole entry: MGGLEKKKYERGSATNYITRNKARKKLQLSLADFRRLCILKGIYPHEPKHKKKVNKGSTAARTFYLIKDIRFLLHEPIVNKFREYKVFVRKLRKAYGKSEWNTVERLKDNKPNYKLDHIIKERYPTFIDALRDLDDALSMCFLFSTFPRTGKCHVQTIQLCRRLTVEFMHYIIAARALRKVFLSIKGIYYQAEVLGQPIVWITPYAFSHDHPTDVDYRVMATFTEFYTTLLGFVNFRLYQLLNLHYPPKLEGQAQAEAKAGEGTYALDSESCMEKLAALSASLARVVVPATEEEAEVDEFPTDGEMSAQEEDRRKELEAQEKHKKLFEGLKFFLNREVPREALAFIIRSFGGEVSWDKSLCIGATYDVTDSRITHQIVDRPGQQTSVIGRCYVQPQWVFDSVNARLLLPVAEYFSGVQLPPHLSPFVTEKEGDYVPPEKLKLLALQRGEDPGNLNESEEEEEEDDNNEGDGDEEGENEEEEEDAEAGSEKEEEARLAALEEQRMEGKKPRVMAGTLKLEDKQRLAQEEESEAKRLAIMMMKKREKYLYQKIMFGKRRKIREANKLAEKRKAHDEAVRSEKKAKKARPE

Row | Target | log2 fold change
1 | UniProt O15231 (peptide sequence: VGEAWQERPGAPR, peptide start residue: 417) | 0.276
2 | INPPL1 (peptide sequence: DSQEDWTTFTHDR, peptide start residue: 351) (UniProt O15357) | 0.291
3 | SPTBN2 (peptide sequence: FQIQDISVETEDNKEK, peptide start residue: 157) (UniProt O15020) | -0.339
4 | AIP (peptide sequence: HVVLYPLVAK, peptide start residue: 94) (UniProt O00170) | -0.162
5 | FANCG (peptide sequence: VLETQEQQGPR, peptide start residue: 103) (UniProt O15287) | -0.357
6 | UniProt O15391 (peptide sequence: FSLDFNLR, peptide start residue: 364) | 0.313
7 | IPO5 (peptide sequence: EHIMQMLQNPDWK, peptide start residue: 361) (UniProt O00410) | -0.301
8 | PIK3C2A (peptide sequence: LIESSLGSIATK, peptide start residue: 1374) (UniProt O00443) | -0.469
9 | NA (peptide sequence: ENLASLER, peptide start residue: 29) (UniProt B2RBV5) | 0.0514
10 | BHLHE40 (peptide sequence: INECIAQLK, peptide start residue: 68) (UniProt O14503) | -0.439
11 | UniProt O15530 (peptide sequence: TYYLMDPSGNAHKWCR, peptide start residue: 522) | 0.458
12 | ARVCF (peptide sequence: NLSYHVHKEVPGADR, peptide start residue: 577) (UniProt O00192) | 0.452
13 | ARHGEF11 (peptide sequence: VLDLIFYQR, peptide start residue: 755) (UniProt O15085) | -0.201
14 | UniProt O14965 (peptide sequence: QWALEDFEIGRPLGK, peptide start residue: 127) | -0.311
15 | MPHOSPH10 (peptide sequence: ATGRPECFLTIQEGLASK, peptide start residue: 21) (UniProt O00566) | -0.724
16 | TNFRSF10A (peptide sequence: IQDLLVDSGK, peptide start residue: 444) (UniProt O00220) | 0.171
17 | YDJC (peptide sequence: HSIPTGLHANLSEGRPVGPAR, peptide start residue: 56) (UniProt A8MPS7) | -0.132
18 | POLRMT (peptide sequence: LHSEPILQDLSR, peptide start residue: 1174) (UniProt O00411) | -0.519
19 | GOSR2 (peptide sequence: MDPLFQQTHK, peptide start residue: 1) (UniProt O14653) | 0.0612
20 | ABCC5 (peptide sequence: TEHQAVLAEQK, peptide start residue: 536) (UniProt O15440) | 0.0608
21 | EIF3H (peptide sequence: EFTAQNLGK, peptide start residue: 332) (UniProt O15372) | 0.0599
22 | UniProt O14618 (peptide sequence: ESAQPPAHL, peptide start residue: 266) | -0.0481
23 | EXOC5 (peptide sequence: KTDFKPEDENNVLIQYTNACVK, peptide start residue: 557) (UniProt O00471) | -0.792
24 | SLC33A1 (peptide sequence: RPGNFSHSLDMK, peptide start residue: 15) (UniProt O00400) | -0.0303
25 | TRAF5 (peptide sequence: HYGCAVTDK, peptide start residue: 226) (UniProt O00463) | 0.4
26 | PES1 (peptide sequence: KLQLSLADFRR, peptide start residue: 26) (UniProt O00541) | -0.396
27 | BCL9 (peptide sequence: FAMPSSTPLYHDAIK, peptide start residue: 1016) (UniProt O00512) | 0.31

Two entries from above, as a markdown table.

| Row | Target | log2 fold change |
| --- | --- | --- |
| 5 | FANCG (peptide sequence: VLETQEQQGPR, peptide start residue: 103) (UniProt O15287) | -0.357 |
| 23 | EXOC5 (peptide sequence: KTDFKPEDENNVLIQYTNACVK, peptide start residue: 557) (UniProt O00471) | -0.792 |

From the supplement of paper PMC12819154, “High-throughput peptide-centric local stability assay extends protein–ligand identification to membrane proteins, tissues and bacteria” (Nature Structural & Molecular Biology, 2025)
